Where no end group is shown, it is not given here.
Assay: general procedure: Fmoc solid-phase peptide synthesis; Fmoc-Ile-Wang resin
Details: whole synthesis, scale 14.7 g resin

## IVRRADRAAVPGGGGRGD-OH
  crude mass: 9.5 g
